For at least one entry, the source does not settle the construct or the ends of the probe. No signal at the amounts used counts as a negative. Protein sequences can lack the tags named with them.
Target: T1, FAR (FXR, OR2.8) (Rattus norvegicus) (UniProt Q62735)
T1 sequence: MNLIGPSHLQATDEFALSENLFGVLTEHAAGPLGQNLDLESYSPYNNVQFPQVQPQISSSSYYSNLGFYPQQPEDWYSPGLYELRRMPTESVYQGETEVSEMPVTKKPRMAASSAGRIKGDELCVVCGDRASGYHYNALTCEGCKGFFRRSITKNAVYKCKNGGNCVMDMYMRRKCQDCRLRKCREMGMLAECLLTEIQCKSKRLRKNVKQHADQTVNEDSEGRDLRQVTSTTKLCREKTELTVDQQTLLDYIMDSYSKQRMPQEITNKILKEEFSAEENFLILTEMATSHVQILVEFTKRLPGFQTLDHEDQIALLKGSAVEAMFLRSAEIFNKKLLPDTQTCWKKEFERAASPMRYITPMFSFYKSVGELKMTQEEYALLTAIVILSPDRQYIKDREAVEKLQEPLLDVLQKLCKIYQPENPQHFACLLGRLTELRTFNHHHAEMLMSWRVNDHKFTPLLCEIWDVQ
Experiment: EMSA
Conditions: protein translated in vitro; protein details: rabbit reticulocyte lysate TNT, Promega; label: 32P (Klenow)

“GGTTCAATGCACT (double strand) [hsp27-EcRE]”: no binding.
